This passage reports log2 fold change results from the supplement of paper PMC10849652.

Protein sequences, listed by entry. Tags and fused reporters are not part of them. Lines headed by an entry give the natural chain unless they say otherwise; changes in a name come on top.
UniProt Q92581: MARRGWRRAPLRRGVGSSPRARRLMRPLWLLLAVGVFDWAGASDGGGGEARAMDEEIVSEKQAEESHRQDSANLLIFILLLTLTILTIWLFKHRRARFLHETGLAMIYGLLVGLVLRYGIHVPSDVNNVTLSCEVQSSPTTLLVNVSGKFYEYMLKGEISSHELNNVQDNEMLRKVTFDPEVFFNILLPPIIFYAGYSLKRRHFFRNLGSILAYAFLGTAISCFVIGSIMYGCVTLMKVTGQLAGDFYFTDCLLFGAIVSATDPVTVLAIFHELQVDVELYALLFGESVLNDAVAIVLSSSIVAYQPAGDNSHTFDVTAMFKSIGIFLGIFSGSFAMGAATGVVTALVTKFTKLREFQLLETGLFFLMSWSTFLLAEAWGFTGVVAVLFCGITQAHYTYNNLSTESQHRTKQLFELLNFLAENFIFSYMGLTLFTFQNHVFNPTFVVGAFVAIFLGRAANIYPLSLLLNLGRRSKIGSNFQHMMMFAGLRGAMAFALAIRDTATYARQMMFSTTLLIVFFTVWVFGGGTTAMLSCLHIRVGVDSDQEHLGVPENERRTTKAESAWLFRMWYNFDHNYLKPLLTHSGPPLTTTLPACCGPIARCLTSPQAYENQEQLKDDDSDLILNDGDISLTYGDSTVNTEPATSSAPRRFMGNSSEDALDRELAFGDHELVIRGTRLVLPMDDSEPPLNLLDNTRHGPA
UniProt Q9H2H9: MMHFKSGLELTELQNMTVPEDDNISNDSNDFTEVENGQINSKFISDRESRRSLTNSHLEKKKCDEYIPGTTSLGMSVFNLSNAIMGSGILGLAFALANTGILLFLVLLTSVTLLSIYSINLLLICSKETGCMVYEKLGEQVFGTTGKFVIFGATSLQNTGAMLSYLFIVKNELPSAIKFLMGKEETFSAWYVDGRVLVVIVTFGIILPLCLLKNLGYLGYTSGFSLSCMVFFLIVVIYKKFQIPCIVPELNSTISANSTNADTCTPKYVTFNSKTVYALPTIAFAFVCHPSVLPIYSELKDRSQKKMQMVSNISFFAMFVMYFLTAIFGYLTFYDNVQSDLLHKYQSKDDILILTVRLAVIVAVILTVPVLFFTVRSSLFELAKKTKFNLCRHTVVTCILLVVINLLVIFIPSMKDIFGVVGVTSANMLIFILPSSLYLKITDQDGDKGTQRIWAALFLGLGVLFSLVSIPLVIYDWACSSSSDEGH
UniProt Q9H0C2: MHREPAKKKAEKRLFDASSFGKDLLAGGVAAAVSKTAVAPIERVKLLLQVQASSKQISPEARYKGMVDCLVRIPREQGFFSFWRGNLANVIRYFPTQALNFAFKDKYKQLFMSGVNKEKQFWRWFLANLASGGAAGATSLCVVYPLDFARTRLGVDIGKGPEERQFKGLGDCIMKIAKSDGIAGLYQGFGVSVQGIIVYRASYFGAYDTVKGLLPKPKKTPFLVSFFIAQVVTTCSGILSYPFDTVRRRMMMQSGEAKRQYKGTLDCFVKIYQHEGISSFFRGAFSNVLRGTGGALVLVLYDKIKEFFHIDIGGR
UniProt O95258: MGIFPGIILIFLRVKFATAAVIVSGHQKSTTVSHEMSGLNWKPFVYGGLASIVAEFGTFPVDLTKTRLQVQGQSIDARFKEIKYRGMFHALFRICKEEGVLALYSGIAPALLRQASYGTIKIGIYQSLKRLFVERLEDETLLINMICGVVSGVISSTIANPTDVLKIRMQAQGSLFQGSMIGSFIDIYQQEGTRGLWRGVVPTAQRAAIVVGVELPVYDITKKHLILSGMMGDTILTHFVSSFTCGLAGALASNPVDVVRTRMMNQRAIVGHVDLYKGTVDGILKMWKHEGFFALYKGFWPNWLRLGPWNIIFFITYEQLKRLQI
UniProt O00400: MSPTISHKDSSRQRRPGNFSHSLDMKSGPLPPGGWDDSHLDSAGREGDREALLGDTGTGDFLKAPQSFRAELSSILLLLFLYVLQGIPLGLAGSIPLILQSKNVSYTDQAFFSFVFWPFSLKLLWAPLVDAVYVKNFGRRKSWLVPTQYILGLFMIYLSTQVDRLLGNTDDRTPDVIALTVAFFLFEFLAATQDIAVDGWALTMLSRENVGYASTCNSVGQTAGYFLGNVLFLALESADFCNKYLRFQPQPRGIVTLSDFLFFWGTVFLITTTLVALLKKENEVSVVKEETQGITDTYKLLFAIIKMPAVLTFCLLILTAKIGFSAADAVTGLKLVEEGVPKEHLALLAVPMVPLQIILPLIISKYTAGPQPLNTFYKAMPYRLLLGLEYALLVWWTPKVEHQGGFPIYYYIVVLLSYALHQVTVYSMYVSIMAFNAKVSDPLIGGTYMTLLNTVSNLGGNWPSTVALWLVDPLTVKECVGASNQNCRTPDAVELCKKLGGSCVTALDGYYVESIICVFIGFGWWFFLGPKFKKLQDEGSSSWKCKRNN
UniProt Q8N357: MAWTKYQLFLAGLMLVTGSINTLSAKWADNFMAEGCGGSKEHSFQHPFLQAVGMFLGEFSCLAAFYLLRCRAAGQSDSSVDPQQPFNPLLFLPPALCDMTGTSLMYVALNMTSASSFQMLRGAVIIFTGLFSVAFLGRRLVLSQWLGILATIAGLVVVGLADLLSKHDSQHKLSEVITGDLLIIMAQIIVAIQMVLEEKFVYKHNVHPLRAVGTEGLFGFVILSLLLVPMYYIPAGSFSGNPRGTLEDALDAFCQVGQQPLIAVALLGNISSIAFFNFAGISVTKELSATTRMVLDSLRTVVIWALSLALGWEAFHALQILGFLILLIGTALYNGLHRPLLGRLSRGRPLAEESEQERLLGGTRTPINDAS
UniProt Q96DW6: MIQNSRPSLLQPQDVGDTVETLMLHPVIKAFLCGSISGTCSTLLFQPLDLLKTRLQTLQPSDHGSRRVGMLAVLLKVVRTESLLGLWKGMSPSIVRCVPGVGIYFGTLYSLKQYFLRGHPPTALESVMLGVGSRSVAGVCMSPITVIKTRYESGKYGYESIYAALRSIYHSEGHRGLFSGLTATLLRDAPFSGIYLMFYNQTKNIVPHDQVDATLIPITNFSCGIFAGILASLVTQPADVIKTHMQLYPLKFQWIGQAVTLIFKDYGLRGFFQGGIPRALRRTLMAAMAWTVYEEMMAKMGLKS
UniProt Q15043: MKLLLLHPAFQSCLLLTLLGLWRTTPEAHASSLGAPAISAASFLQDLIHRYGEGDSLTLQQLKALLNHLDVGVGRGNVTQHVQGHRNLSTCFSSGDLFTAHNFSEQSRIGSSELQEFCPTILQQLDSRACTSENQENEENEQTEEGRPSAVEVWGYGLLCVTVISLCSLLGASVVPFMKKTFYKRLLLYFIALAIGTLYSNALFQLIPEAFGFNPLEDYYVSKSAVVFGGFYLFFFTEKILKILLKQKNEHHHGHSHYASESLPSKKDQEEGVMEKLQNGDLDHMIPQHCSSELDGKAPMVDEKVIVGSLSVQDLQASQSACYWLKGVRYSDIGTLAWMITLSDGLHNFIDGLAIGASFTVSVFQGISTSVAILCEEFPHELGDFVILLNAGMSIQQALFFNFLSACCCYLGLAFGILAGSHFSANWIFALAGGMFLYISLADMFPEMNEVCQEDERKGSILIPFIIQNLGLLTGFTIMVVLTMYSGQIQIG
UniProt O75387: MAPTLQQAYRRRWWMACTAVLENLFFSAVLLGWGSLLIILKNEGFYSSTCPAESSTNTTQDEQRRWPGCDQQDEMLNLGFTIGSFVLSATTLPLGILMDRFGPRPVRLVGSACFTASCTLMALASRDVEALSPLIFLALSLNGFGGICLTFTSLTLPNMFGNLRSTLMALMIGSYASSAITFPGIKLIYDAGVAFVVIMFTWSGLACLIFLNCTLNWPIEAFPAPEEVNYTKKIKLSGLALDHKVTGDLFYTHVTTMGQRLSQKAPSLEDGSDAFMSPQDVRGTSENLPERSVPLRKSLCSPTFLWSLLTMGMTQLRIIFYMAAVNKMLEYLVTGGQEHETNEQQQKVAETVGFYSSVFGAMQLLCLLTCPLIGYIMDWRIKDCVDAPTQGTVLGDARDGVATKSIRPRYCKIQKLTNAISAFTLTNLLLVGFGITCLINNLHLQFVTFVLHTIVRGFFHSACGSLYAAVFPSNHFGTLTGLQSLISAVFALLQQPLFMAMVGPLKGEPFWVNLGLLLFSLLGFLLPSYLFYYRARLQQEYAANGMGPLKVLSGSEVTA
UniProt Q9H936: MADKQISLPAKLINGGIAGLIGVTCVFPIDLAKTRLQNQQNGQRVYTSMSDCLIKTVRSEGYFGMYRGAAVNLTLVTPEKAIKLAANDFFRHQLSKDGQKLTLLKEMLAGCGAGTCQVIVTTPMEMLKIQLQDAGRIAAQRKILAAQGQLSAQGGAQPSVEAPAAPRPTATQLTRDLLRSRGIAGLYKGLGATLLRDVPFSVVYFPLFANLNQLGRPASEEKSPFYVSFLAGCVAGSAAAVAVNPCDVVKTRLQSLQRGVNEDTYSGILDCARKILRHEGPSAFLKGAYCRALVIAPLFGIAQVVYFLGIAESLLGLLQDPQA
UniProt Q9BXS9: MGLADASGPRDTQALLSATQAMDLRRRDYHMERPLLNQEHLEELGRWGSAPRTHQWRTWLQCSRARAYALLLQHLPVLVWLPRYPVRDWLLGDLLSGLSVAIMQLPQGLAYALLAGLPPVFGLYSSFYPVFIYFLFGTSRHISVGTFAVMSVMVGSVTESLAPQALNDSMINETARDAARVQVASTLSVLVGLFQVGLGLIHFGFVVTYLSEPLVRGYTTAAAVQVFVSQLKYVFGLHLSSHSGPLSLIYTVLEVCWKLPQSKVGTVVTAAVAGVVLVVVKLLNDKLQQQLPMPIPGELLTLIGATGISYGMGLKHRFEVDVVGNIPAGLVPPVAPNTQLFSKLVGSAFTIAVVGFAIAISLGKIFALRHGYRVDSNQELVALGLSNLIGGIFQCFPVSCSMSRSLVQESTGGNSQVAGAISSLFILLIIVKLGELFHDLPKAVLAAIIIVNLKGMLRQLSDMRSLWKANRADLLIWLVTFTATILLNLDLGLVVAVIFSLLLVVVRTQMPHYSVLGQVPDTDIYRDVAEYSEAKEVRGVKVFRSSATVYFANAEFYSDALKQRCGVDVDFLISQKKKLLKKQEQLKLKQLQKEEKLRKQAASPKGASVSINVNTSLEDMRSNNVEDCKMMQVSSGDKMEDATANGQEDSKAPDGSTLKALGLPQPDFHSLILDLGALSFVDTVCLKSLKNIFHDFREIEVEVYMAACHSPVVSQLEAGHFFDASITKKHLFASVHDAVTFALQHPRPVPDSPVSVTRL
UniProt Q8IYB5: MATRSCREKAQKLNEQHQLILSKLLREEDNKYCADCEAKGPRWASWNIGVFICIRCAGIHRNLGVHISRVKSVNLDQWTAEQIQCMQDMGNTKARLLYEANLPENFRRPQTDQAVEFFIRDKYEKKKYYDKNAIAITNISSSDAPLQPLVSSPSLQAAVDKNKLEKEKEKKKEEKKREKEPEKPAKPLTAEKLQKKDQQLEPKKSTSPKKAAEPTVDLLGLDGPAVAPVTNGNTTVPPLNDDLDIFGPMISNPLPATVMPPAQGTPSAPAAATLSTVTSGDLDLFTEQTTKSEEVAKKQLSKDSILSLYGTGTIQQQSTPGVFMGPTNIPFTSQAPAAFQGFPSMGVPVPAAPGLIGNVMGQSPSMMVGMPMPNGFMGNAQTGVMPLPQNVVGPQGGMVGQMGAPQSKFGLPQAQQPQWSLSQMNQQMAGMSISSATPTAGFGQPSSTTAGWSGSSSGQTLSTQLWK
UniProt P52569: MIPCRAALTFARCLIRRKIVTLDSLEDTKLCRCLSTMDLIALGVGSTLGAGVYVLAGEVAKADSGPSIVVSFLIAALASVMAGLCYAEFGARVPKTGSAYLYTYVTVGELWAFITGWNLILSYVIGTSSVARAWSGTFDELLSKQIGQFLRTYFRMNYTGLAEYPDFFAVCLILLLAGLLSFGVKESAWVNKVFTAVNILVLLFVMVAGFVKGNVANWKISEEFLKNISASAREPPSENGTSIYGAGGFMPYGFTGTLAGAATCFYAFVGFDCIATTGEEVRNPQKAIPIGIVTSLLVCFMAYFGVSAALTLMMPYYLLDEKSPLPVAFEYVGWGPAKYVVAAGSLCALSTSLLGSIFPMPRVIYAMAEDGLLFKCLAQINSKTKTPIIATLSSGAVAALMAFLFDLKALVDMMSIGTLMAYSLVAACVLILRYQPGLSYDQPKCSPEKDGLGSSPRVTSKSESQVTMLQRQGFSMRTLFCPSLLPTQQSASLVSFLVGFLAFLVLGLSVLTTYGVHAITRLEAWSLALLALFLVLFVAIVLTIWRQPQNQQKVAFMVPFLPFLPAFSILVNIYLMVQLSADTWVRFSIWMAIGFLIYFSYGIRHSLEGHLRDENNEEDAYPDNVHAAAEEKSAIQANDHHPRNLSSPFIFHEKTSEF
UniProt Q70HW3: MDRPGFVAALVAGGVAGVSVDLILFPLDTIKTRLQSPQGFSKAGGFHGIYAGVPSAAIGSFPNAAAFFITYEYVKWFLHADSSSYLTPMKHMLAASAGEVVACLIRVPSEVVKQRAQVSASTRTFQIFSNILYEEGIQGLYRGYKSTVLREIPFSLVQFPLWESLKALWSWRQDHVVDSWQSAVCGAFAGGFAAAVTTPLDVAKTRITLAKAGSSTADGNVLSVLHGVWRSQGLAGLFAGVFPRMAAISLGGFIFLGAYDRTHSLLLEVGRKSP

This is one part of the list.

Compound in the experiment: CCn1c(C(=O)N(C2CC2)C2CC2)cc2c3c(ncn3C)c(Nc3cc(C)n(C)n3)nc21
Nature of the experiment: log2 fold change, soluble protein after heating vs DMSO (PISA); higher = thermal stabilisation; K562 lysate, 10 uM; active = over 0.2 and 3.5 SD of the protein, either way, in both replicates (recomputed). The procedure, abridged:
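Values give the log-two fold change in thermal stability against solvent controls, from duplicates. Crude K562 extract at 1 mg/mL protein, made by dounce homogenisation in PBS pH 7.4 with 1 mM MgCl2, was treated with 10 μM compound for 30 min. After 3 min heating across 48°C-58°C, aliquots were pooled, adjusted to 0.5% NP-40 at 4°C and centrifuged at 21,000xg for 90 min. The supernatant was measured by TMTpro 16plex LC-MS/MS with channel sums equalised.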
As to SLC9A6 isoform 2 (UniProt Q92581), the log2 fold change is inactive: -0.08. As for SLC25A25 isoform 3 (UniProt Q6KCM7), the log2 fold change was inactive: 0.007.

As to SLC38A1 (UniProt Q9H2H9), the log2 fold change is inactive: 0.008.

Turning to SLC25A31 (UniProt Q9H0C2), the log2 fold change is inactive: -0.018.

In the case of SLC25A14 isoform 3 (UniProt O95258), the log2 fold change was inactive: -0.032. With SLC38A2 (UniProt Q96QD8), the log2 fold change is inactive: 0.089.

SLC7A1 (UniProt P30825): the log2 fold change was inactive: 0.052. For the target SLC25A20 (UniProt O43772), the log2 fold change is inactive: -0.037. With SLC33A1 (UniProt O00400), the log2 fold change is inactive: -0.004. Take SMAP2 (UniProt Q8WU79): the log2 fold change was inactive: 0.012.

SLC30A10 (UniProt Q6XR72): the log2 fold change is inactive: -0.043. In the case of SLC35F6 (UniProt Q8N357), the log2 fold change was inactive: -0.018.

SLC39A3 (UniProt Q9BRY0): the log2 fold change is inactive: -0.002. With SLC35B2 (UniProt Q8TB61), the log2 fold change is inactive: 0.036.

Regarding SLC25A51 (UniProt Q9H1U9), the log2 fold change was inactive: 0.037. As for SLC25A6 (UniProt P12236), the log2 fold change was inactive: -0.011. On to SLC25A15 (UniProt Q9Y619), for which the log2 fold change was inactive: 0.004.

With SLC25A37 (UniProt Q9NYZ2), the log2 fold change was inactive: -0.081. SLC9A1 (UniProt P19634): the log2 fold change is inactive: -0.148. Then SLC35A4 (UniProt L0R6Q1), with inactive: 0.037; and SLC25A38 (UniProt Q96DW6), with inactive: 0.015. Regarding SLC25A46 (UniProt Q96AG3), the log2 fold change was inactive: 0.009. With SLC39A14 (UniProt Q15043), the log2 fold change is inactive: -0.006. For SLK isoform 2 (UniProt Q9H2G2) the value was inactive: -0.004; for SLC43A1 (UniProt O75387), inactive: 0.002. For SLC25A22 (UniProt Q9H936), the log2 fold change was inactive: 0.006. In the case of SLC25A4 (UniProt P12235), the log2 fold change is inactive: 0.068. Consider SLC26A6 (UniProt Q9BXS9), for which the log2 fold change is inactive: 0.017. As to SLC25A11 (UniProt Q02978), the log2 fold change was inactive: -0.005.

With SLC25A42 (UniProt Q86VD7), the log2 fold change is inactive: -0.104. As for SLC27A2 (UniProt O14975), the log2 fold change is inactive: -0.063. Then SLC29A1 isoform 2 (UniProt Q99808), with inactive: -0.002; and SMAP1 isoform 2 (UniProt Q8IYB5), with inactive: -0.011. As for SLC7A2 isoform 3 (UniProt P52569), the log2 fold change was inactive: -0.115. As to SLC25A26 (UniProt Q70HW3), the log2 fold change is inactive: -0.057.

With SLC30A7 (UniProt Q8NEW0), the log2 fold change was inactive: -0.078. Turning to SLC25A21 (UniProt Q9BQT8), the log2 fold change is inactive: -0.034. Take SLC44A2 (UniProt Q8IWA5): the log2 fold change was inactive: -0.226. SLC6A8 isoform 2 (UniProt P48029): the log2 fold change was inactive: -0.128.
